Data published in publication PMC4473678, “Swedish mutant APP-based BACE1 binding site peptide reduces APP β-cleavage and cerebral Aβ levels in Alzheimer’s mice” (Scientific Reports, 2015).
“Also recorded” adds a separate entry of the source.

Tested on: BACE1, ADAM10 and ADAM17
Assay: WB of secretase expression in brain homogenates, 5XFAD mice
Format: in vivo, mouse
Conditions: 8 weeks, TAT-APPsweBBP, TAT and PBS groups compared

YGRKKRRQRRREISEVNLDAEFR [APPsweBBP conjugated with the membrane fusion fragment of HIV-1 Tat protein]
ADAM10 expression in brain homogenates: not significantly different; also recorded: comparable expression levels | ADAM17 expression in brain homogenates: not significantly different; also recorded: comparable expression levels | BACE1 expression in brain homogenates: not significantly different; also recorded: comparable expression levels
